This experiment addresses T1, HSV-1 UL43 protein, FLAG-tagged wild type (UL43-WT-FLAG) (herpes simplex virus 1 (HSV-1)) (UniProt P10227).
T1 sequence: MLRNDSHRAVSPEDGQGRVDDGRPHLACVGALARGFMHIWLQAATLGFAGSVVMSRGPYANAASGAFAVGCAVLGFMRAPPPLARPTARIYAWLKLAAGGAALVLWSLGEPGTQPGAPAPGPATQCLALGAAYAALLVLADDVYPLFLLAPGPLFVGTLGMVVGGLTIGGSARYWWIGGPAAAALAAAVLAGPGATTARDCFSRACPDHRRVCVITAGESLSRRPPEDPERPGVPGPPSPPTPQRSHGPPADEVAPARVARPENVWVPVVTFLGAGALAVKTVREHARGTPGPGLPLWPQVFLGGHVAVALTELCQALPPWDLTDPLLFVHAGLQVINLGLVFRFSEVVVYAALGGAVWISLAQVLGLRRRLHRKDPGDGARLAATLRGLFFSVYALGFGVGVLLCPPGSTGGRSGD
As to the kind of experiment: affinity purification with mass spectrometry; differing bands of the SDS-PAGE gels cut out, digested with trypsin, MALDI-TOF-MS.

Protein sequences, listed by entry. Tags and fused reporters are not part of them.
UniProt P36404: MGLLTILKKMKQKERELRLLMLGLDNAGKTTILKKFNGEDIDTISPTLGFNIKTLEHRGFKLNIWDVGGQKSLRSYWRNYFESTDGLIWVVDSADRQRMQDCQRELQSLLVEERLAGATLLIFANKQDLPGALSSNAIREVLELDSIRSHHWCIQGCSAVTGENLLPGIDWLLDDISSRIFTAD

Results are given in words; binding and its absence hold for the method and conditions named. In cells and extracts the contact can be indirect. A yes stands for co-enrichment or nearness to the bait. Other partners may have been found. Tags and fused reporters may be left off the sequences shown.

On to “ARF-like 2 (ARL2) GTPase (from UniProt P36404 1-184)”, for which the binding entry is on record as “binds”.

The values above are taken from PMC9688820.
